Laboratory results as given in doi:10.1101/2021.12.14.472597.
Results are given in words; binding and its absence hold for the method and conditions named. In cells and extracts the contact can be indirect. Some results given as binding are weak or reduced against the parent protein; the word gives no strength. Tags and fused reporters may be left off the sequences shown.

Columns and labels:
Assay in all cases: co-IP
[1] = target: T1, AtSK23, GFP-tagged (Arabidopsis thaliana) (UniProt Q39010)
T1 sequence: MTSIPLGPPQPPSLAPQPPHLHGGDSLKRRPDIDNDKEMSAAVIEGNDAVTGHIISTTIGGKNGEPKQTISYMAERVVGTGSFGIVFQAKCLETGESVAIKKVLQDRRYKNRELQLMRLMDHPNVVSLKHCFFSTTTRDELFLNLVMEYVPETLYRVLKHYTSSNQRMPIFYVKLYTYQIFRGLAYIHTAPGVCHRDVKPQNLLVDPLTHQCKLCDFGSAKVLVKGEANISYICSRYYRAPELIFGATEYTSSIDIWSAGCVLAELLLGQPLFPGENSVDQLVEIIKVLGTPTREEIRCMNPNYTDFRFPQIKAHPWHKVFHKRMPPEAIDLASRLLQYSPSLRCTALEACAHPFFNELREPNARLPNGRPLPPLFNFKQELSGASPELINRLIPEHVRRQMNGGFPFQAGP

[2] = target: T2, AtSK13, GFP-tagged (Arabidopsis thaliana) (UniProt Q8VZD5)
T2 sequence: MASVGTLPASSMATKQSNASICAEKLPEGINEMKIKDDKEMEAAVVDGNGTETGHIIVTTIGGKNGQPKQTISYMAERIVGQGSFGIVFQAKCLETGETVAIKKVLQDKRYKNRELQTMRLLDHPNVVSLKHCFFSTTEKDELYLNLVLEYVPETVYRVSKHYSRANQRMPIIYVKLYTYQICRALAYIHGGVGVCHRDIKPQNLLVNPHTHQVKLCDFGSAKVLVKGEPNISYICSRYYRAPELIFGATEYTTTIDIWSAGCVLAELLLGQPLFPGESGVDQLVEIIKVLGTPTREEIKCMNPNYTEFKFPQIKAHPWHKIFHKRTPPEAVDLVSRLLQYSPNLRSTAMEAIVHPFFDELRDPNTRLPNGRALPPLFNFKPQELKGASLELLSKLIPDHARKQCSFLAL

[3] = target: T3, AtSK41, GFP-tagged (Arabidopsis thaliana) (UniProt Q39019)
T3 sequence: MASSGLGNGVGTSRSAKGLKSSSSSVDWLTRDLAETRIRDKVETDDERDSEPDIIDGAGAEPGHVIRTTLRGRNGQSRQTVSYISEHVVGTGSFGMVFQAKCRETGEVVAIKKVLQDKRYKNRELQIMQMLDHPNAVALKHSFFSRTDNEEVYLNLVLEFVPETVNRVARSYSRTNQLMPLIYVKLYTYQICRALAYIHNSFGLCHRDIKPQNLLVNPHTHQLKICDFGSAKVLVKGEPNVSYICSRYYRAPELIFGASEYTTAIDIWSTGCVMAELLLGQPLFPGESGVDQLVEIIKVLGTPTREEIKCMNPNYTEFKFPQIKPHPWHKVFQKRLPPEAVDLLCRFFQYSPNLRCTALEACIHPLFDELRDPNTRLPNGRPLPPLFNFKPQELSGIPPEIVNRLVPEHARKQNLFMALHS

[4] = target: T4, AtSK11, GFP-tagged (Arabidopsis thaliana) (UniProt P43288)
T4 sequence: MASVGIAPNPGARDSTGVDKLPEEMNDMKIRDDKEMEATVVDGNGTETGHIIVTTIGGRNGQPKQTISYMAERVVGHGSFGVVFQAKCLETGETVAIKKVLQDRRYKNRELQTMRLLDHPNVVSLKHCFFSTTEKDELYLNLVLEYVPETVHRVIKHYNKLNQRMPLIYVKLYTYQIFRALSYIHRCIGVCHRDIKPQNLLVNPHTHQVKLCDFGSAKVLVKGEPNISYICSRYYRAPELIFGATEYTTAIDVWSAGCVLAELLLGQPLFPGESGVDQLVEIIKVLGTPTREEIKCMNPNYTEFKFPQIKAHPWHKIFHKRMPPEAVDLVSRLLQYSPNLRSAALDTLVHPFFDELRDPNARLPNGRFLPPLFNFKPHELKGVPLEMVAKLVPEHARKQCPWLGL

[5] = target: T5, AtSK42, GFP-tagged (Arabidopsis thaliana) (UniProt Q9FVS6)
T5 sequence: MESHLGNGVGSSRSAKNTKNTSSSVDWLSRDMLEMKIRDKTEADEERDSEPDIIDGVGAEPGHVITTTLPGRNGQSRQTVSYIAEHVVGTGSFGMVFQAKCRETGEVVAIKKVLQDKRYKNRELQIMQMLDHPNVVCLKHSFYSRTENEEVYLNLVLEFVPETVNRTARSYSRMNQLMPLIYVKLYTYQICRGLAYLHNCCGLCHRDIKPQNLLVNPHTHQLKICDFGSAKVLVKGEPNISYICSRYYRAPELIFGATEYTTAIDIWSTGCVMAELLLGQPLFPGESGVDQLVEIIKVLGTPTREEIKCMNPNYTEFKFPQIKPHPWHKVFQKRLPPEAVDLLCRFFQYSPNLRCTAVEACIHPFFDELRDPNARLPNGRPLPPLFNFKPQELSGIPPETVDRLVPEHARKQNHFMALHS

[6] = target: T6, AtSK32, GFP-tagged (Arabidopsis thaliana) (UniProt Q96287)
T6 sequence: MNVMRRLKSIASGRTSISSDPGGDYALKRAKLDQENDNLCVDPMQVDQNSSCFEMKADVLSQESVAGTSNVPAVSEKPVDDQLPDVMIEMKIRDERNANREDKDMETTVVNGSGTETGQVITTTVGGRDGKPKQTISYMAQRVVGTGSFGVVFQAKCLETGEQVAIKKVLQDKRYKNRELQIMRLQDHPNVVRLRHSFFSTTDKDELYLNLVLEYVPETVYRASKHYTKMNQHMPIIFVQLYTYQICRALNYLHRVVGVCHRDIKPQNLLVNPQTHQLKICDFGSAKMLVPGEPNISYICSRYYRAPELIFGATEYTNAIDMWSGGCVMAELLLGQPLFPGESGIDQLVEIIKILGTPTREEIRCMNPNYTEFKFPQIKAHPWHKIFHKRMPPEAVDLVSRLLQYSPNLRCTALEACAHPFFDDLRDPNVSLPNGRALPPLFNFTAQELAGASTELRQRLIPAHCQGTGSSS

[7] = target: T7, BR-…2 (BIN2)/AtSK21, GFP-tagged (Arabidopsis thaliana) (UniProt Q39011)
T7 sequence: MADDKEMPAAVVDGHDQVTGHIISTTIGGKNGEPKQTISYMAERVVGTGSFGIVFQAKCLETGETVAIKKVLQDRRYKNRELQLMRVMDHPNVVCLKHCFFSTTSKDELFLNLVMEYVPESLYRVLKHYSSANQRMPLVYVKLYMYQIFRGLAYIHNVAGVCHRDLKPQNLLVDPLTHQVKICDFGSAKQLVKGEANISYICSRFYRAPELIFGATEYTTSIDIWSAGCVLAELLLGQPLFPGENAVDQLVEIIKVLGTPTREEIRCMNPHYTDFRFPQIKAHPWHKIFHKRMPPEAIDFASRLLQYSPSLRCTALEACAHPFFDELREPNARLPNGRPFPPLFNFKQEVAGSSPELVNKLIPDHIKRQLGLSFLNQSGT

[8] = target: T8, AtSK22, GFP-tagged (Arabidopsis thaliana) (UniProt Q39012)
T8 sequence: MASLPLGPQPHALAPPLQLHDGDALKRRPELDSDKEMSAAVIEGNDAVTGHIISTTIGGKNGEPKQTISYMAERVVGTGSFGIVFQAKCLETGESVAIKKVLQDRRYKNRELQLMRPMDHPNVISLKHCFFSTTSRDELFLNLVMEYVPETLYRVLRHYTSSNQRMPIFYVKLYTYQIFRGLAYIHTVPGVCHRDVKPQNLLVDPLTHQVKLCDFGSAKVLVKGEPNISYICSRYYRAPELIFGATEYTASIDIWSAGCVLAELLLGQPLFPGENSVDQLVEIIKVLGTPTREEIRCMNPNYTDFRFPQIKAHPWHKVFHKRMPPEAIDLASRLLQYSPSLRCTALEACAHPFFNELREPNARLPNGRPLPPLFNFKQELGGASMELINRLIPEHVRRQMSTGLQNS

[9] = target: T9, AtSK12, GFP-tagged (Arabidopsis thaliana) (UniProt P43289)
T9 sequence: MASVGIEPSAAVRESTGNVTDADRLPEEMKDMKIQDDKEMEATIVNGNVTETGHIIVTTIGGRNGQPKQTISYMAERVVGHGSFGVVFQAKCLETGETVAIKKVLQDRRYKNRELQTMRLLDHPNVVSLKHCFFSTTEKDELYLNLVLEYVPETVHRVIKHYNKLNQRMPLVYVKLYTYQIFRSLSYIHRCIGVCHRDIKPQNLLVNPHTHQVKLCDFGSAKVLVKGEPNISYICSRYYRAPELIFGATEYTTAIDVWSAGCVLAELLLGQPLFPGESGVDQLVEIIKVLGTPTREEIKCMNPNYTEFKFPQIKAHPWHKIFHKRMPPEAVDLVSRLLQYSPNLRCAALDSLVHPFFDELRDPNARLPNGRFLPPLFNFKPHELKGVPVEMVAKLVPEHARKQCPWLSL

Measured: binding

B1: HOPW1-1-…2 (WIN2, AT4G31750), HA-tagged (protein, UniProt Q8RXV3 1-311)
chain: MGYLNSVLSSSSQVHSDDGPVSGGGLSQNGKFSYGYASSPGKRSSMEDFYETRIDGVEGEIVGLFGVFDGHGGARAAEYVKQNLFSNLIRHPKFISDTTAAIADAYNQTDSEFLKSENSQNRDAGSTASTAILVGDRLLVANVGDSRAVICRGGNAIAVSRDHKPDQSDERQRIEDAGGFVMWAGTWRVGGVLAVSRAFGDRLLKQYVVADPEIQEEKVDSSLEFLILASDGLWDVVSNEEAVGMIKAIEDPEEGAKRLMMEAYQRGSADNITCVVVRFFSDQAGGIGSSSTNIPIDHGIVPDRISGDSST
binds: all assays above
